Data taken from the supplement of paper PMC9744312.
Structures can show the parent of a compound that is named as a salt. The list shows a part of the results. The data scatter; read single values as rough.

Tested on: Peyronie's disease tunica albuginea primary fibroblasts
Assay: inhibition of TGF-beta1-induced alpha-SMA expression (myofibroblast transformation), relative to TGF-beta1-only and untreated controls; higher = stronger inhibition of myofibroblast transformation
Conditions: 10 µM; TGF-beta1 10 ng/mL; 72 h

| SMILES | inhibition of TGF-beta1-induced alpha-SMA expression [%] |
| --- | --- |
| O=C1C2CC3CC1CC(O)(C3)C2 [Idramantone] | 17.6 |
| CCN1CCN(c2cc3c(cc2F)c(=O)c(C(=O)O)cn3C2CC2)CC1 [Enrofloxacin] | 22.3 |
| CO/N=C(\C(=O)N[C@@H]1C(=O)N2C(C(=O)O)=C(CSc3nc(=O)c(O)nn3C)CS[C@H]12)c1csc(N)n1 [Ceftriaxone Sodium Trihydrate] | 0.683 |
| CO/N=C(\C(=O)N[C@@H]1C(=O)N2C(C(=O)O)=C(CSc3nc(=O)c(O)nn3C)CS[C@H]12)c1csc(N)n1 [Ceftriaxone Sodium] | > 100 |
| NCCCC[C@H](N[C@@H](CCc1ccccc1)C(=O)O)C(=O)N1CCC[C@H]1C(=O)O [Lisinopril] | 63.8 |
| CC(C)(C)NC[C@H](O)COc1nsnc1N1CCOCC1 [Timolol Maleate] | -28.4 |
| Cc1ccc(C(=O)Nc2ccc(CN3CCN(C)CC3)c(C(F)(F)F)c2)cc1C#Cc1cnc2cccnn12 | -15 |
| O=C(Nc1cccc2c(=O)cc(-c3nnn[nH]3)oc12)c1ccc(OCCCCc2ccccc2)cc1 [Pranlukast] | 11.6 |
| CCOC(=O)[C@H](CCc1ccccc1)N[C@H]1CCc2ccccc2N(CC(=O)O)C1=O [Benazepril HCl] | 23.4 |
| COC1=C(OC)C(=O)C(CCCCCCCCCCO)=C(C)C1=O [Idebenone] | 29 |
| CC(COc1ccccc1)N(CCCl)Cc1ccccc1 (stereo not drawn) [Phenoxybenzamine HCl] | 3.26 |
| Nc1ncn([C@@H]2O[C@H](CO)[C@@H](O)[C@H]2O)c(=O)n1 [Azacitidine] | 25.9 |
| COc1ccc(CN(CCN(C)C)c2ccccn2)cc1 [Pyrilamine Maleate] | -0.91 |
| CCCNC(C)C(=O)Nc1ccccc1C (stereo not drawn) [Prilocaine hydrochloride] | 0.331 |
| CCCNC(C)C(=O)Nc1ccccc1C (stereo not drawn) [Prilocaine] | -0.0584 |
| COc1cc(/C=C/C(=O)N2CCN(CC(=O)N3CCCC3)CC2)cc(OC)c1OC [Cinepazide maleate] | 13.4 |
| Cc1c(-c2ccnn2C)cc(C(=O)NCc2ccc(S(C)(=O)=O)cn2)c(=O)n1-c1cccc(C(F)(F)F)c1 [Alvelestat (AZD9668)] | 1.45 |
| CC(=O)c1ccc(S(=O)(=O)NC(=O)NC2CCCCC2)cc1 [Acetohexamide] | 32.5 |
| CCCCC[C@H](O)/C=C/[C@@H]1[C@@H](C/C=C\CCCC(=O)O)[C@@H](O)C[C@H]1O [Dinoprost tromethamine] | 9.12 |
| CCOC(=O)c1ccc(OC(=O)CCCCCNC(=N)N)cc1 [Gabexate Mesylate] | 4.91 |
| O=C(NC1CCN(CCCCC2(C(=O)NCC(F)(F)F)c3ccccc3-c3ccccc32)CC1)c1ccccc1-c1ccc(C(F)(F)F)cc1 [Lomitapide Mesylate] | > 100 |
| O=C(NC1CCN(CCCCC2(C(=O)NCC(F)(F)F)c3ccccc3-c3ccccc32)CC1)c1ccccc1-c1ccc(C(F)(F)F)cc1 [Lomitapide] | > 100 |
| CCCN[C@H]1CCc2nc(N)sc2C1 [Pramipexole 2HCl Monohydrate] | 43.5 |
| CCCN[C@H]1CCc2nc(N)sc2C1 [Pramipexole dihydrochloride] | 24.8 |
| CCCN[C@H]1CCc2nc(N)sc2C1 [Pramipexole] | 7.21 |

| SMILES | inhibition of TGF-beta1-induced alpha-SMA expression [%] |
| --- | --- |
| CC(C)(C)Cn1c(N)nc2ccc(-c3[nH]c(C(C)(C)C)nc3-c3ccc(F)cc3)nc21 | -4.55 |
| COc1cccc(-c2ccc(NC(=O)C3=C(C(=O)O)CCC3)c(F)c2)c1 [Vidofludimus] | 26.9 |
| c1ccc(C2CN3CCSC3=N2)cc1 (stereo not drawn) [Tetramisole HCl] | -3.78 |
| C=C1c2cccc(O)c2C(=O)C2=C(O)[C@]3(O)C(=O)C(C(N)=O)=C(O)[C@@H](N(C)C)[C@@H]3[C@@H](O)[C@H]12 [Methacycline HCl] | -10.4 |
| Cn1c(=O)cc(N2CCC[C@@H](N)C2)n(Cc2cc(F)ccc2C#N)c1=O [Trelagliptin] | 58.5 |
| Cn1c(=O)cc(N2CCC[C@@H](N)C2)n(Cc2cc(F)ccc2C#N)c1=O [Trelagliptin succinate] | 60.3 |
| C[N+](C)(C)CCO.O=C([O-])C(O)C(O)C(=O)O (stereo not drawn) [Choline bitartrate] | -5.18 |
| CO[C@H]1/C=C/O[C@@]2(C)Oc3c(C)c(O)c4c(c3C2=O)C2=NC3(CCN(CC(C)C)CC3)NC2=C(NC(=O)/C(C)=C\C=C\[C@H](C)[C@H](O)[C@@H](C)[C@@H](O)[C@@H](C)[C@H](OC(C)=O)[C@@H]1C)C4=O [Rifabutin] | 7.93 |
| c1cnc2cc3c(cc2n1)[C@@H]1CNC[C@H]3C1 [Varenicline Tartrate] | 14.9 |
| CC(=O)OCC(COC(C)=O)OC(C)=O [Triacetin] | -12.4 |
| O=C(CCCCCCNC(=O)c1cnc(N(c2ccccc2)c2ccccc2)nc1)NO [Ricolinostat (ACY-1215)] | 95.8 |
| NC(CO)(CO)CO [Trometamol] | -11.2 |
| Clc1ccc(C(Cn2ccnc2)OCc2c(Cl)cccc2Cl)c(Cl)c1 (stereo not drawn) [Isoconazole nitrate] | 3.03 |
| NCCC[C@H](N)C(=O)O [L-Ornithine] | 6.82 |
| NC(=O)N1c2ccccc2C=Cc2ccccc21 [Carbamazepine] | -5.34 |
| Nc1nc(F)nc2c1ncn2[C@@H]1O[C@H](CO)[C@@H](O)[C@@H]1O [Fludarabine] | 3.22 |
| CC[C@H]1OC(=O)[C@H](C)[C@@H](O[C@H]2C[C@@](C)(OC)[C@@H](O)[C@H](C)O2)[C@H](C)[C@@H](O[C@@H]2O[C@H](C)C[C@H](N(C)C)[C@H]2O)[C@](C)(O)C[C@@H](C)/C(=N\OCOCCOC)[C@H](C)[C@@H](O)[C@]1(C)O [Roxithromycin] | 41.7 |
| CC(C)[C@H]1C(=O)N[C@@H](CCCN=C(N)N)C(=O)NCC(=O)N[C@@H](CC(=O)O)C(=O)N[C@H](Cc2ccccc2)C(=O)N1C | > 100 |
| Nc1nc(=O)c2nc(CNc3ccc(C(=O)N[C@@H](CCC(=O)O)C(=O)O)cc3)cnc2[nH]1 [Folic acid] | -4.62 |
| C=C1CC[C@H](O)C/C1=C/C=C1\CCC[C@]2(C)[C@@H]([C@H](C)CCCC(C)(C)O)CC[C@@H]12 [Calcifediol] | 36.9 |
| COc1cc(S(=O)(=O)O)ccc1O [Sulfogaiacol] | 6.86 |
| CN1CC[C@H](c2c(O)cc(O)c3c(=O)cc(-c4ccccc4Cl)oc23)[C@H](O)C1 [Flavopiridol (Alvocidib)] | > 100 |
| CC(C)C(=O)OCC(=O)[C@@]12O[C@H](C3CCCCC3)O[C@@H]1C[C@H]1[C@@H]3CCC4=CC(=O)C=C[C@]4(C)[C@H]3[C@@H](O)C[C@@]12C [Ciclesonide] | -33.7 |
| Nc1nc(Cl)nc2c1ncn2[C@@H]1O[C@H](CO)[C@@H](O)[C@@H]1F [Clofarabine] | 41.2 |
| O=C1CN2Cc3c(ccc(Cl)c3Cl)N=C2N1 [Anagrelide HCl] | 13.1 |

Quoted at random: three records from the list.

| SMILES | inhibition of TGF-beta1-induced alpha-SMA expression [%] |
| --- | --- |
| CO/N=C(\C(=O)N[C@@H]1C(=O)N2C(C(=O)O)=C(CSc3nc(=O)c(O)nn3C)CS[C@H]12)c1csc(N)n1 [Ceftriaxone Sodium] | > 100 |
| CC(C)(C)Cn1c(N)nc2ccc(-c3[nH]c(C(C)(C)C)nc3-c3ccc(F)cc3)nc21 | -4.55 |
| CC(COc1ccccc1)N(CCCl)Cc1ccccc1 (stereo not drawn) [Phenoxybenzamine HCl] | 3.26 |

Additional results:

| SMILES | inhibition of TGF-beta1-induced alpha-SMA expression [%] |
| --- | --- |
| CC(C)NCC(O)COc1ccc(COCCOC(C)C)cc1 (stereo not drawn) [Bisoprolol fumarate] | 23.4 |
| CN(C)Cc1c(C(=O)NCCOc2ccc(C(=O)NO)cc2)oc2ccccc12 | 75.4 |
| CN1C2CCCC1CC(NC(=O)c1nn(C)c3ccccc13)C2 (stereo not drawn) [Granisetron] | 35.9 |
| CN1C2CCCC1CC(NC(=O)c1nn(C)c3ccccc13)C2 (stereo not drawn) [Granisetron HCl] | -3.34 |
| CC(C)N1CCN(c2ccc(OCC3COC(Cn4cncn4)(c4ccc(Cl)cc4Cl)O3)cc2)CC1 (stereo not drawn) [Terconazole] | 15.7 |
| CCN(Cc1ccncc1)C(=O)C(CO)c1ccccc1 (stereo not drawn) [Tropicamide] | 21.5 |
| CCN(CC)CC#CCOC(=O)C(O)(c1ccccc1)C1CCCCC1 (stereo not drawn) [Oxybutynin chloride] | 30.9 |
| CCN(CC)CC#CCOC(=O)C(O)(c1ccccc1)C1CCCCC1 (stereo not drawn) [Oxybutynin] | 26.6 |
| Cc1ncc([N+](=O)[O-])n1CCO [Metronidazole] | 7.32 |
| COc1cc(CNC(=O)CCCCC=CC(C)C)ccc1O [Capsaicin(Vanilloid)] | 55.2 |
| C=CC[C@@H]1/C=C(\C)C[C@H](C)C[C@H](OC)[C@H]2O[C@@](O)(C(=O)C(=O)N3CCCC[C@H]3C(=O)O[C@H](/C(C)=C/[C@@H]3CC[C@@H](O)[C@H](OC)C3)[C@H](C)[C@@H](O)CC1=O)[C@H](C)C[C@@H]2OC [Tacrolimus (FK506)] | 12.6 |
| Cc1ccc(C(=O)c2cc(O)c(O)c([N+](=O)[O-])c2)cc1 [Tolcapone] | 21.1 |
| O=C([O-])c1ccccc1O.[Na+] [Sodium salicylate] | 16 |
| COc1ccc2[nH]cc(CCNC(C)=O)c2c1 [Melatonin] | 28.2 |
| COc1cc2nc(N3CCN(C(=O)c4ccco4)CC3)nc(N)c2cc1OC [Prazosin HCl] | 11.2 |
| NCCS(=O)(=O)O [Taurine] | 37 |
| CCCCS(=O)(=O)N[C@@H](Cc1ccc(OCCCCC2CCNCC2)cc1)C(=O)O [Tirofiban Hydrochloride] | -18.3 |
| CCn1cc(C(=O)O)c(=O)c2cnc(N3CCNCC3)nc21 [Pipemidic acid] | -1.04 |
| CC(C)OC(=O)CCC/C=C\C[C@@H]1[C@@H](/C=C/C(F)(F)COc2ccccc2)[C@H](O)C[C@@H]1O [Tafluprost] | 7.48 |
| COc1nc(C)nc(Cl)c1NC1=NCCN1 [Moxonidine] | 4.62 |
| Cc1ccc(NC(=O)c2ccc(CN3CCN(C)CC3)cc2)cc1Nc1nc(-c2cccnc2)cs1 [Masitinib (AB1010)] | -12.1 |
| Cc1ccc(S(=O)(=O)NC(=O)NN2CC3CCCC3C2)cc1 (stereo not drawn) [Gliclazide] | -5.77 |
| CC1(C)S[C@@H]2[C@H](NC(=O)Cc3ccccc3)C(=O)N2[C@H]1C(=O)O.CCN(CC)CCOC(=O)c1ccc(N)cc1 [Penicillin G Procaine] | -1.17 |
